Laboratory results taken from patent JP2007530675A.
Results are given in words; binding and its absence hold for the method and conditions named. Some binding calls cover weakened binding; strength is not graded here. Sequences can lack the tags named with a protein.

Assays:
[1] = target: human CS1 extracellular domain (amino acids 1-227)-Fc (human) [IgG part: P01857]; assay: sandwich ELISA, captured human CS1-Fc, 2 μg/ml antibody
[2] = target: hu50/mu50 chimeric CS1-Fc (human/mouse chimera; human) [IgG part: P01857]; assay: sandwich ELISA, captured chimeric CS1-Fc

| binding [1] | binding [2] | Binder |
| --- | --- | --- |
| binds | binds | Luc69 (antibody, V domains shown) VH: QVQLQQSGPELVKPGASVKISCKASGYAFSNSWMNWVKQRPGQGLEWIGRIYPGDGDTKSNGKFKGKATLTADKSSRAAYMQLSSLTSVDSAVYFCARSTMIMTGAMDYWGQGTSVTVSS VL: DIVMTQSHKFMSTSVGDRVIITCKASQDVSTAVAWYQQKPGQSPKLLIYSASFRYTGVPDRFTGSGSGTDFTFTVSSVQAEDLAVYYCQQHYSTPPYTFGGGTKLEIK |
| binds | binds | Luc90 (antibody, V domains shown) VH: QVQLQQPGAELVRPGASVKLSCKASGYSFTTYWMNWVKQRPGQGLEWIGMIHPSDSETRLNQKFKDKATLTVDKSSSTAYMQLSSPTSEDSAVYYCARSTMIATRAMDYWGQGTSVTVSS VL: DIVMTQSQKSMSTSVGDRVSITCKASQDVITGVAWYQQKPGQSPKLLIYSASYRYTGVPDRFTGSGSGTDFTFTISNVQAEDLAVYYCQQHYSTPLTFGAGTKLELK |
| binds | binds | Luc34 (antibody, V domains shown) VH: QVQLQQSGAELARPGASVKLSCKASGYTFTSYWMQWVKQRPGQGLEWIGAIYPGDGDTRYTQKFKGKATLTADKSSSTAYMQLSSLASEDSAVYYCARGKVYYGSNPFAYWGQGTLVTVSA VL: DIQMTQSSSYLSVSLGGRVTITCKASDHINNWLAWYQQKPGNAPRLLISGATSLETGVPSRFSGSGSGKDYTLSITSLQTEDVATYYCQQYWSTPWTFGGGTKLEIK |
